Values from PubChem BioAssay AID1259308 (NCATS, 2017).

- Test: 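Candidate targets for better recombinant protein yield in mammalian cells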 (primary screen)
- Cell system: human HEK293 embryonic kidney cells stably expressing firefly luciferase (HEK-CMV-Luc2-Hygro)
- Reagents: single siRNA against human genes, 0.8 pmol siRNA per well
- Timing: 72 h
- Measured: 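Luciferase light (ONE-Glo) measured on one replicate plate set and viability (CellTiter-Glo) on the other, scaled to a negative control siRNA, with robust z-scores and luciferase per cell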
- Scale: total luciferase, z-score and total luciferase, % of control: higher = more reporter protein produced
- Rule for the call: 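Active when the median/MAD z-score for overall luciferase is greater than 3; a gene was taken forward for validation with new siRNAs if at least two of its three siRNAs passed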
- Meaning of the calls: active = raised luciferase; inactive = no rise
Here is an unselected part of about 59,000 reagents tested. Of all reagents, about 1,510 (2.6%) are marked active. 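Calls use total luciferase alone and ignore viability, so some active siRNAs may act by altering cell number.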 Reagents against one gene are numbered here. Not all columns of the deposit are shown. No sequences are given here.

| gene | reagent | total luciferase, z-score | total luciferase, % of control | outcome |
| --- | --- | --- | --- | --- |
| CACNA1G (calcium voltage-gated channel subunit alpha1 G) | 1 | 1 | 102 | inactive |
| CACNA1G (calcium voltage-gated channel subunit alpha1 G) | 2 | 0.832 | 98.4 | inactive |
| CACNA1G (calcium voltage-gated channel subunit alpha1 G) | 3 | -0.019 | 81.5 | inactive |
| POU3F1 (POU class 3 homeobox 1) | 1 | 0.852 | 98.8 | inactive |
| POU3F1 (POU class 3 homeobox 1) | 2 | 0.233 | 86.5 | inactive |
| POU3F1 (POU class 3 homeobox 1) | 3 | 1.33 | 108 | inactive |
| LMBR1 (limb development membrane protein 1) | 1 | 0.626 | 94.3 | inactive |
| LMBR1 (limb development membrane protein 1) | 2 | -0.787 | 66.2 | inactive |
| LMBR1 (limb development membrane protein 1) | 3 | 0.185 | 85.6 | inactive |
| FANCB (FA complementation group B) | 1 | 0.358 | 89 | inactive |
| FANCB (FA complementation group B) | 2 | -0.00172 | 81.9 | inactive |
| FANCB (FA complementation group B) | 3 | 0.468 | 91.2 | inactive |
| GAL3ST2 (galactose-3-O-sulfotransferase 2) | 1 | -0.373 | 74.5 | inactive |
| GAL3ST2 (galactose-3-O-sulfotransferase 2) | 2 | -1.49 | 52.3 | inactive |
| GAL3ST2 (galactose-3-O-sulfotransferase 2) | 3 | 5.18 | 185 | active |
| TSHZ2 (teashirt zinc finger homeobox 2) | 1 | 0.191 | 85.7 | inactive |
| TSHZ2 (teashirt zinc finger homeobox 2) | 2 | -0.194 | 78 | inactive |
| TSHZ2 (teashirt zinc finger homeobox 2) | 3 | -0.127 | 79.4 | inactive |
| HTR3C (5-hydroxytryptamine receptor 3C) | 1 | 0.41 | 90 | inactive |
| HTR3C (5-hydroxytryptamine receptor 3C) | 2 | -0.845 | 65.1 | inactive |
| HTR3C (5-hydroxytryptamine receptor 3C) | 3 | -0.707 | 67.8 | inactive |
| VPS50 (VPS50 subunit of EARP/GARPII complex) | 1 | -0.0201 | 81.5 | inactive |
| VPS50 (VPS50 subunit of EARP/GARPII complex) | 2 | 2.82 | 138 | inactive |
| VPS50 (VPS50 subunit of EARP/GARPII complex) | 3 | 2.7 | 136 | inactive |
| CATSPER4 (cation channel sperm associated 4) | 1 | -1.97 | 42.7 | inactive |
| CATSPER4 (cation channel sperm associated 4) | 2 | -0.218 | 77.6 | inactive |
| CATSPER4 (cation channel sperm associated 4) | 3 | 0.349 | 88.8 | inactive |
| C1QTNF7 (C1q and TNF related 7) | 1 | -0.28 | 76.3 | inactive |
| C1QTNF7 (C1q and TNF related 7) | 2 | -2.92 | 23.8 | inactive |
| C1QTNF7 (C1q and TNF related 7) | 3 | -0.192 | 78.1 | inactive |
| ZNF415 (zinc finger protein 415) | 1 | 0.817 | 98.1 | inactive |
| ZNF415 (zinc finger protein 415) | 2 | 0.385 | 89.5 | inactive |
| ZNF415 (zinc finger protein 415) | 3 | -0.131 | 79.3 | inactive |

The list goes on (3 carried over from the part before).
| gene | reagent | total luciferase, z-score | total luciferase, % of control | outcome |
| --- | --- | --- | --- | --- |
| ZNF415 (zinc finger protein 415) | 1 | 0.817 | 98.1 | inactive |
| ZNF415 (zinc finger protein 415) | 2 | 0.385 | 89.5 | inactive |
| ZNF415 (zinc finger protein 415) | 3 | -0.131 | 79.3 | inactive |
| SPMIP10 (sperm microtubule inner protein 10) | 1 | 1.52 | 112 | inactive |
| SPMIP10 (sperm microtubule inner protein 10) | 2 | -1.57 | 50.8 | inactive |
| SPMIP10 (sperm microtubule inner protein 10) | 3 | -1.29 | 56.3 | inactive |
| EMILIN3 (elastin microfibril interfacer 3) | 1 | 1.76 | 117 | inactive |
| EMILIN3 (elastin microfibril interfacer 3) | 2 | -0.378 | 74.4 | inactive |
| EMILIN3 (elastin microfibril interfacer 3) | 3 | 0.404 | 89.9 | inactive |
| LRRC37A17P (leucine rich repeat containing 37 member A17, pseudogene) | 1 | -1.48 | 52.4 | inactive |
| LRRC37A17P (leucine rich repeat containing 37 member A17, pseudogene) | 2 | 0.0393 | 82.7 | inactive |
| LRRC37A17P (leucine rich repeat containing 37 member A17, pseudogene) | 3 | -0.659 | 68.8 | inactive |
| LRRC37A17P (leucine rich repeat containing 37 member A17, pseudogene) | 4 | -0.556 | 70.8 | inactive |
| LRRC37A17P (leucine rich repeat containing 37 member A17, pseudogene) | 5 | 0.35 | 88.8 | inactive |
| LRRC37A17P (leucine rich repeat containing 37 member A17, pseudogene) | 6 | -0.143 | 79 | inactive |
| WNT1 (Wnt family member 1) | 1 | -0.368 | 74.6 | inactive |
| WNT1 (Wnt family member 1) | 2 | -0.491 | 72.1 | inactive |
| WNT1 (Wnt family member 1) | 3 | 0.941 | 101 | inactive |
| PITPNC1 (phosphatidylinositol transfer protein cytoplasmic 1) | 1 | 2.78 | 137 | inactive |
| PITPNC1 (phosphatidylinositol transfer protein cytoplasmic 1) | 2 | -1.11 | 59.8 | inactive |
| PITPNC1 (phosphatidylinositol transfer protein cytoplasmic 1) | 3 | -0.0467 | 81 | inactive |
| PITPNC1 (phosphatidylinositol transfer protein cytoplasmic 1) | 4 | 3.24 | 146 | active |
| PITPNC1 (phosphatidylinositol transfer protein cytoplasmic 1) | 5 | 0.461 | 91.1 | inactive |
| PITPNC1 (phosphatidylinositol transfer protein cytoplasmic 1) | 6 | 1.08 | 103 | inactive |
| OR56A3 (olfactory receptor family 56 subfamily A member 3) | 1 | 0.866 | 99.1 | inactive |
| OR56A3 (olfactory receptor family 56 subfamily A member 3) | 2 | -0.598 | 70 | inactive |
| OR56A3 (olfactory receptor family 56 subfamily A member 3) | 3 | 1.61 | 114 | inactive |
